Substitutions are numbered along the chain they refer to. These are yes or no findings as the source states them, for the method shown. Some entries that bind do so weakly or less than the wild type. For part of these data: Where a sequence is shown, tags or fusion partners need not be part of it.
Legend:
[1] = biological target: recombinant mouse clec14a CTLD Fc fusion protein (mCTLD-Fc) (mouse; human) (UniProt Q8VCP9); assay: ELISA, coated mCTLD-Fc (25 nM), 67 nM IgG
[2] = biological target: recombinant human clec14a CTLD Fc fusion protein (hCTLD-Fc) (human) (UniProt Q86T13); assay: ELISA, coated hCTLD-Fc (25 nM), 67 nM IgG
[3] = biological target: T1, fusion protein comprising an amino acid fragment from 122nd amino acid to 142nd amino acid in hCTLD (human); assay: epitope mapping ELISA, coated fragment-Fc 10 µg/ml, IgG 10 µg/ml
T1 sequence: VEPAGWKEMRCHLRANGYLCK

Chains of the proteins cited; added tags and fusions are not shown. Lines headed by an entry give the natural chain unless they say otherwise; changes in a name come on top.
UniProt Q8VCP9: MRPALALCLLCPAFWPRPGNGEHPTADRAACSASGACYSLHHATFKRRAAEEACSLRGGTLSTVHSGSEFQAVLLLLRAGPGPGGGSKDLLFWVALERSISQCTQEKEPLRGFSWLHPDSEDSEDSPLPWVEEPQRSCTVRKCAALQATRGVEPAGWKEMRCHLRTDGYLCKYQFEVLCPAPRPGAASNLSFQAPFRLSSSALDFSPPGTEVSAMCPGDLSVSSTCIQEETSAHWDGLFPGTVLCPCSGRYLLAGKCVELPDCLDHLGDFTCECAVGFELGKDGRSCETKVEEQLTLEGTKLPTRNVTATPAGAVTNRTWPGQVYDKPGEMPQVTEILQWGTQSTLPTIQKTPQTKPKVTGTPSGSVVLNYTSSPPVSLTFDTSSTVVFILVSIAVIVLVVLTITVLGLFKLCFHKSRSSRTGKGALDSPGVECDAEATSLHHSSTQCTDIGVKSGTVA
UniProt Q86T13: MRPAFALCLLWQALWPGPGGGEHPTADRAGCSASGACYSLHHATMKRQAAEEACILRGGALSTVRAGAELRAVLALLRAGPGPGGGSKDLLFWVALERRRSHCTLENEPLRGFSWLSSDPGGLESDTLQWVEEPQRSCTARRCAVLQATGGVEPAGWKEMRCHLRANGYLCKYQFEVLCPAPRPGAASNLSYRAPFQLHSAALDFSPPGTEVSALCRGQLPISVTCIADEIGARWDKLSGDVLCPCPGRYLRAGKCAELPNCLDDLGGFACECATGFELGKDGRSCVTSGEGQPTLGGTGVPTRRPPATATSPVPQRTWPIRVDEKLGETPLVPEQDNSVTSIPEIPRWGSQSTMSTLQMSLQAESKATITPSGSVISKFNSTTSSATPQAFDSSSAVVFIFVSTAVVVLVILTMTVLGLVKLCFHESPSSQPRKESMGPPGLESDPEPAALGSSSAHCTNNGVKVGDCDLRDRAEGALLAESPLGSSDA

[4] = biological target: recombinant human clec14a CTLD Fc fusion protein (hCTLD-Fc) (human) (UniProt Q86T13); assay: phage enzyme immunoassay (phage ELISA) on hCTLD-Fc
[5] = biological target: recombinant mouse clec14a CTLD Fc fusion protein (mCTLD-Fc) (mouse; human) (UniProt Q8VCP9); assay: phage enzyme immunoassay (phage ELISA) on mCTLD-Fc

B1: clec14a-CTLD IgG clone 4 (antibody, V domains shown)
VH: EVQLLESGGGLVQPGGSLRLSCAASGFTFSGYYMSWVRQAPGKGLEWVSVIYSGDGSTYYADSVKGRFTISRDNSKNTLYLQMNSLRAEDTAVYYCARGLNSSSALPFDYWGQGTLVTVSS
VL: QSVLTQPPSASGTPGQRVTISCSGSSSNIGSNAVNWYQQLPGTAPKLLIYADSNRPSGVPDRFSGSKSGTSASLAISGLRSEDEADYYCGSWDYSLSAYVFGGGTKLTVL
Question: With B1 as the binder, how does the binding [1] read?
Answer: binds

Question: And the binding [2]?
Answer: binds

B2: clec14a-CTLD IgG clone 1 (antibody, V domains shown)
VH: EVQLLESGGGLVQPGGSLRLSCAASGFTFSGYDMSWVRQAPGKGLEWVSGIYPDGGNTYYADSVKGRFTISRDNSKNTLYLQMNSLRAEDTAVYYCARGATWWVLGPFDYWGQGTLVTVSS
VL: B1 VL with S23T, S31N, A33S, N35T, N54H, S91A, Y94D, A98G
notes: scFv converted to IgG; Lambda light chain, detected with anti-human lambda antibody
Question: How did the binding [3] turn out when B2 was run?
Answer: binds

B3: clec14a-CTLD IgG clone 2 (antibody, V domains shown)
VH: EVQLLESGGGLVQPGGSLRLSCAASGFTFSSYDMSWVRQAPGKGLEWVSVISPDSSSTYYADSVKGRFTISRDNSKNTLHLQMNSLRAEDTAVYYCARHTGWQSRPHTYYDYGMDVWGQGTLVTVSS
VL: B1 VL with S31N, N35T, A51S, S53N, N54H, S91T, Y94A, A98G
notes: Lambda light chain
Question: Which binding [3] does the source give for B3 here?
Answer: binds

B4: scFv clone 4 (phage-displayed) (scFv, V domains shown)
VH: B1 VH
VL: B1 VL
Question: B4 was tested. Which binding [4] did it give?
Answer: binds

Question: And the binding [5]?
Answer: binds

— US20150140001A1 (Scripps Research, published 2015)
